Source: publication PMC8639993
No constants are given. Whether binding was seen depends on the method and setting. Binding seen in cells or lysates may run through a third protein. Here binding means that the protein was enriched with, or labelled near, the bait; the list need not be complete.

Chains of the proteins cited; added tags and fusions are not shown.
UniProt Q99684: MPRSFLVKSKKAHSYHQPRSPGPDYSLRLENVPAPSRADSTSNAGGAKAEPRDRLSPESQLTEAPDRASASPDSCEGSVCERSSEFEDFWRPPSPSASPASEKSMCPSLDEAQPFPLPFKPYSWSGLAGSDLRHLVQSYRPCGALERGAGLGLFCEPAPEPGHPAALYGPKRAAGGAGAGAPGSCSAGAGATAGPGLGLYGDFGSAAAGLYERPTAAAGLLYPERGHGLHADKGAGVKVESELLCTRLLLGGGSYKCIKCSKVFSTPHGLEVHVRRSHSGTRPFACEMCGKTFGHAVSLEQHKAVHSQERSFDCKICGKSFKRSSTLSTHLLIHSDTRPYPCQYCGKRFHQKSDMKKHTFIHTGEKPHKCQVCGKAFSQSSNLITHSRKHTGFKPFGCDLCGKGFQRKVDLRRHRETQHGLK
UniProt Q5VTD9: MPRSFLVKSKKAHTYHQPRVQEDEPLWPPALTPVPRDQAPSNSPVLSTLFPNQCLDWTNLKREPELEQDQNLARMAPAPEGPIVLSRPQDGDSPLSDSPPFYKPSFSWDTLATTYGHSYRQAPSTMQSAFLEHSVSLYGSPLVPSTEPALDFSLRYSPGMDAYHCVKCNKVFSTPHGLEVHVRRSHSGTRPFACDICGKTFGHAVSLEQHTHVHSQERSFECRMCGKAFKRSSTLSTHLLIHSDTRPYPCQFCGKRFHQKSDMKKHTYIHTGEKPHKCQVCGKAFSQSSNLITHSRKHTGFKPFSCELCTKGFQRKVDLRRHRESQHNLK
UniProt Q8IZ40: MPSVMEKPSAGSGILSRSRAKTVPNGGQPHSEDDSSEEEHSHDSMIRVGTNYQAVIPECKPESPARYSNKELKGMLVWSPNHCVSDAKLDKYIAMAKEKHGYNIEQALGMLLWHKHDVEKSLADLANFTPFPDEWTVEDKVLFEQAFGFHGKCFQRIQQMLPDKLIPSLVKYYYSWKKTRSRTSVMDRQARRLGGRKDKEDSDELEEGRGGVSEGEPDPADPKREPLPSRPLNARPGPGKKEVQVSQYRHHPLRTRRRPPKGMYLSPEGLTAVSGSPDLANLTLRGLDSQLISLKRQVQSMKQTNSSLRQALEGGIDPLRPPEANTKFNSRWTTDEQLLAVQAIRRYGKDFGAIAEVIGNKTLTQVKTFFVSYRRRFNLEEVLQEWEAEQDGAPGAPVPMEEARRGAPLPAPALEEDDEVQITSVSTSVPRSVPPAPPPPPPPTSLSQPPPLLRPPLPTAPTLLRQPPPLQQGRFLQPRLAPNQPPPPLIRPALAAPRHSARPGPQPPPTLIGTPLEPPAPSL
UniProt Q92769: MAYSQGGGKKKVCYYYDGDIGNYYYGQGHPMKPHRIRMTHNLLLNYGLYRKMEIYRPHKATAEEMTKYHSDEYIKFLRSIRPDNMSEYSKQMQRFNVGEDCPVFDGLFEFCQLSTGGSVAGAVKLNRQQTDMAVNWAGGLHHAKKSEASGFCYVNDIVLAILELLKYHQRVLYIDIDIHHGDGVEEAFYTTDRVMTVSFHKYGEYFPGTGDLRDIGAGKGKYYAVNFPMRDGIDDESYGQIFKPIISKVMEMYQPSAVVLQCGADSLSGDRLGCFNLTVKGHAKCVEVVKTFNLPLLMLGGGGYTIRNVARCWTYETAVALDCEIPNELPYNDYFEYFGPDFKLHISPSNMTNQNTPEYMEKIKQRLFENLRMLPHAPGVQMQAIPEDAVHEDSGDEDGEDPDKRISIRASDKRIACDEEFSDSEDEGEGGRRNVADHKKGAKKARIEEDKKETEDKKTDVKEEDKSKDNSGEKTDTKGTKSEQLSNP
UniProt Q13547: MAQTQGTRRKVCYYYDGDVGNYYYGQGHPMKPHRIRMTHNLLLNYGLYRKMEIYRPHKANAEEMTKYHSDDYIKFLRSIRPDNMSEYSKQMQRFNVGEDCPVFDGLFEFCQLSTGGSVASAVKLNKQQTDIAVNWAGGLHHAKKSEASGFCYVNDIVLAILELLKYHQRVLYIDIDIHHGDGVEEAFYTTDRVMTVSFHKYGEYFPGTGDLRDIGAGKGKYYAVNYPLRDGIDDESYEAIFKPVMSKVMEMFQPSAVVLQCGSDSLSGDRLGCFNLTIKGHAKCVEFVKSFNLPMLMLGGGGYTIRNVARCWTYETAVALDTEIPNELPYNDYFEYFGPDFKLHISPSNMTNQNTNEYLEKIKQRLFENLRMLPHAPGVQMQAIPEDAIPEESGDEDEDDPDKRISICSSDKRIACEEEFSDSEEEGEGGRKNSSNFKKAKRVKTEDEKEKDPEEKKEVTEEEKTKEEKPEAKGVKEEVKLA
UniProt Q09028: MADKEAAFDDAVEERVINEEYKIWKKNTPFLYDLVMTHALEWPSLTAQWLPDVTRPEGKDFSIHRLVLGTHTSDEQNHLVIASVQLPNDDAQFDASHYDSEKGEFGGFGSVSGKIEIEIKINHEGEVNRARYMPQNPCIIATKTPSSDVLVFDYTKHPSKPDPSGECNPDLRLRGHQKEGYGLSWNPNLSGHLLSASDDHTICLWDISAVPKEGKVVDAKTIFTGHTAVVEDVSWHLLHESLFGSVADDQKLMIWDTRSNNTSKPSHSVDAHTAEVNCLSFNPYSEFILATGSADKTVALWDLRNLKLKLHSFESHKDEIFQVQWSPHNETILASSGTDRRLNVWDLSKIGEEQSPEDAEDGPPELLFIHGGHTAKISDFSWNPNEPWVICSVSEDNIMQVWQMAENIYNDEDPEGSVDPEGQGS
UniProt Q14839: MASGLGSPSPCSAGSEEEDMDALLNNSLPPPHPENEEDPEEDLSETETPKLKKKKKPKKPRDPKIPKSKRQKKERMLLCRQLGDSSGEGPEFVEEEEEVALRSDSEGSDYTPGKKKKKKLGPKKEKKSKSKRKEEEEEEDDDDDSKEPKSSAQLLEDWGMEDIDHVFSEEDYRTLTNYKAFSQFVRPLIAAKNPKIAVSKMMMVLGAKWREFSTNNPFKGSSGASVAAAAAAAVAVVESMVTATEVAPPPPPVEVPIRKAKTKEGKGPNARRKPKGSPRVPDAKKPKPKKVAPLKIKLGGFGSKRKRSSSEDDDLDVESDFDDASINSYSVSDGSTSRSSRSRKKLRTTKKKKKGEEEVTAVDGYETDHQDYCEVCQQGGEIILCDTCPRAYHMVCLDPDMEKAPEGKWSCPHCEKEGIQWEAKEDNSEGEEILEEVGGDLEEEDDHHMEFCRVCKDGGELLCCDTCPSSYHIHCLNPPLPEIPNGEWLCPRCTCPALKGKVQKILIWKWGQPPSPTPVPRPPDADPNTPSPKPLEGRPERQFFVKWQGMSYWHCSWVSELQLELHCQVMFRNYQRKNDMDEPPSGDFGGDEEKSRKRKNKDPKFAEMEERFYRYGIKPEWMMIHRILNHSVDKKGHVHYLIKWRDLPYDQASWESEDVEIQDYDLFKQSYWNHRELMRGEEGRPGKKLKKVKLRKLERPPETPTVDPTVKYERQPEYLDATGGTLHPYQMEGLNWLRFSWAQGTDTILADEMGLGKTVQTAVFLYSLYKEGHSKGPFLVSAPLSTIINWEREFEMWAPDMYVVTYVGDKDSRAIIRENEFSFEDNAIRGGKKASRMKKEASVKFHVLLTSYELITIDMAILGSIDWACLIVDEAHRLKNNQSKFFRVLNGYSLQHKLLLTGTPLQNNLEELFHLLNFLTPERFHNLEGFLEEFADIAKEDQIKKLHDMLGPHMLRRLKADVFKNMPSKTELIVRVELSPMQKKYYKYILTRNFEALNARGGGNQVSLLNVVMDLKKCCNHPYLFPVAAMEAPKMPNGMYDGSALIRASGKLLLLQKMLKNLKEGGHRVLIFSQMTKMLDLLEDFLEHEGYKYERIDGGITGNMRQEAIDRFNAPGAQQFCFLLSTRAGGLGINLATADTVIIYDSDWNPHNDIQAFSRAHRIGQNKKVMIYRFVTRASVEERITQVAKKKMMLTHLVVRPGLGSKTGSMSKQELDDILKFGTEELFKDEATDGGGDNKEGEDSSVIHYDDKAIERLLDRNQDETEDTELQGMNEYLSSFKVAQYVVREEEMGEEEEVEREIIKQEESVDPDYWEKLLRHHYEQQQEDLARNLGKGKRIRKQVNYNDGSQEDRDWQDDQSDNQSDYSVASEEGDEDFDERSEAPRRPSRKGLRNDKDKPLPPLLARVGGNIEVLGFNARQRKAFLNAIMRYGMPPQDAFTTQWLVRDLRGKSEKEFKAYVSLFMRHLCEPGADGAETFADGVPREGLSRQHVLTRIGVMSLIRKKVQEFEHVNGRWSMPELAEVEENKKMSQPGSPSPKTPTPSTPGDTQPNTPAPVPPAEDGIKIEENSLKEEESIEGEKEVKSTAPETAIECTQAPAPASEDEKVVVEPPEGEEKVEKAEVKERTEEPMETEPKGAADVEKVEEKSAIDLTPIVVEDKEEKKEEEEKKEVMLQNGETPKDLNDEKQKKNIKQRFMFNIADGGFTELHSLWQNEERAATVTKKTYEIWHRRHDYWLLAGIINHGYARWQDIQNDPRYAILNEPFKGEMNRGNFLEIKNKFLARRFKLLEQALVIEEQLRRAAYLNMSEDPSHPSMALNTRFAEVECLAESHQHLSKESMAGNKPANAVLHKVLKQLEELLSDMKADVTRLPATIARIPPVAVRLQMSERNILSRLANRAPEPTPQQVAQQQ
UniProt Q12873: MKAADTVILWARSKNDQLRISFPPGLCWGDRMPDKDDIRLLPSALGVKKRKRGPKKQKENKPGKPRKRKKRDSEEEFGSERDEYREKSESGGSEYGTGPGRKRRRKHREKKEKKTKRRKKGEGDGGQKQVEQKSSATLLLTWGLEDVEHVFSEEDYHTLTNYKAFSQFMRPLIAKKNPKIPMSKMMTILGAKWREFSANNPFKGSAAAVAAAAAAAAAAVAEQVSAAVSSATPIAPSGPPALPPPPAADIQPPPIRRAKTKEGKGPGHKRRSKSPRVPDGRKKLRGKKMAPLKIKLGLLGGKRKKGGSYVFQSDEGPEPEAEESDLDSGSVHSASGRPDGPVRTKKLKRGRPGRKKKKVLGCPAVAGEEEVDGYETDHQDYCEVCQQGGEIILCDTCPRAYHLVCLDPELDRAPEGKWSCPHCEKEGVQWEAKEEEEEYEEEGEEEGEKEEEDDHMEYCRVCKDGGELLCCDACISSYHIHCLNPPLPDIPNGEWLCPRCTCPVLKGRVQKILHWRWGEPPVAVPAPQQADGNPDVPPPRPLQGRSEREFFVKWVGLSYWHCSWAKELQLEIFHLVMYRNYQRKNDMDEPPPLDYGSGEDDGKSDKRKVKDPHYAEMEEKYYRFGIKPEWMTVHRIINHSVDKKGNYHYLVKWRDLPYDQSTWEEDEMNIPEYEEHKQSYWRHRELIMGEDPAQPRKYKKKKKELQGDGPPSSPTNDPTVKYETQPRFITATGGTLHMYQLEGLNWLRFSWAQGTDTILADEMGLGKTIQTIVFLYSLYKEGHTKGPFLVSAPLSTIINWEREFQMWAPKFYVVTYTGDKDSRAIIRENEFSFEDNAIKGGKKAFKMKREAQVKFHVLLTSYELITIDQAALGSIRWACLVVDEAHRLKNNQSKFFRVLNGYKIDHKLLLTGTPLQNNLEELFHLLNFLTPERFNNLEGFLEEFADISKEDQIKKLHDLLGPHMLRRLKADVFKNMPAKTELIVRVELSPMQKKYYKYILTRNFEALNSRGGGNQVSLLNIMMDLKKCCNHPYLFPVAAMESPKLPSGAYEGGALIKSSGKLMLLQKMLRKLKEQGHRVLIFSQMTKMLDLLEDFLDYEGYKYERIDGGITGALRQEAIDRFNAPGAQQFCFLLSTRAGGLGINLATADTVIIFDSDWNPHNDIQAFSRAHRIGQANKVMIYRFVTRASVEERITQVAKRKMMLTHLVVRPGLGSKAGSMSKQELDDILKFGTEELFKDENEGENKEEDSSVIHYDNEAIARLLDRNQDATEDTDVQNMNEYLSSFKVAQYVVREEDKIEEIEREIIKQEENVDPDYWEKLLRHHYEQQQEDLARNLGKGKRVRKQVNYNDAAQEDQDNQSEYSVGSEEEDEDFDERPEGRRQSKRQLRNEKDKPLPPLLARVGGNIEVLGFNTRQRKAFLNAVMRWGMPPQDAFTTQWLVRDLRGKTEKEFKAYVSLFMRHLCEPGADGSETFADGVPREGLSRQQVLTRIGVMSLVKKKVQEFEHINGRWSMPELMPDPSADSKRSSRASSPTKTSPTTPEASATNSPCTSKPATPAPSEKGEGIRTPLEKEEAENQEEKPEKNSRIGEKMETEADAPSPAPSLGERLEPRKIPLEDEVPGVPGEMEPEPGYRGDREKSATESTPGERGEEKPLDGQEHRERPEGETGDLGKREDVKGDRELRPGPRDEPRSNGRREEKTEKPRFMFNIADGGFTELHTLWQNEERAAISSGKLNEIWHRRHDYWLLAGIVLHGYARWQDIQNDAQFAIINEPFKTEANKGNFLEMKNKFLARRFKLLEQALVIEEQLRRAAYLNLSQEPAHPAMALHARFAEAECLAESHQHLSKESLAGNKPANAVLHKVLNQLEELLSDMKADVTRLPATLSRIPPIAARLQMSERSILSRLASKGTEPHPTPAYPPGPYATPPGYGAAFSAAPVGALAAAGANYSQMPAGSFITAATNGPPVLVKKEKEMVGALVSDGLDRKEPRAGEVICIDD

Tests used:
[1] = target: GFI1-Flag fusion protein (full-length Flag-tagged GFI1) (UniProt Q99684); test: affinity purification with mass spectrometry; Flag-tagged GFI1 or GFI1B expressed in HEK293T cells as bait; co-purified proteins identified by mass spectrometry (refs. 36, 37 cited)
[2] = target: GFI1B-Flag-tagged fusion protein (UniProt Q5VTD9); test: as above
GFI1BWT-BirA*-Flag = GFI1BWT-BirA*-Flag (UniProt Q5VTD9); test: proximity labelling; BioID with GFI1BWT-BirA*-Flag; samples generated in the authors' previous work (ref. 37), processed with SAINT/ProHits and shown here beside GFI1 (Fig. 1C)
GFI1WT-BirA*-Flag = GFI1WT-BirA*-Flag (UniProt Q99684); test: proximity labelling; BioID: Flp-In T-REx HEK293T cells expressing GFI1WT-BirA*-Flag or GFI1ΔSNAG-BirA*-Flag, 50 µM biotin and 1 µg/ml tetracycline for 24 h; RIPA lysis with benzonase; streptavidin-sepharose; mass spectrometry; SAINT filtering against BirA*-Flag controls

Measured: binding

RCOR2 (from UniProt Q8IZ40 1-523)
binds: all assays above

GATA Zinc Finger Domain Containing 2B (GATAD2B) (from UniProt Q8WXI9 1-593)
binds: GFI1BWT-BirA*-Flag | GFI1WT-BirA*-Flag

HDAC2 (from UniProt Q92769 1-488) (enzyme)
binds: GFI1BWT-BirA*-Flag | GFI1WT-BirA*-Flag

RCOR3 (from UniProt Q9P2K3 1-495)
binds: all assays above

HDAC1 (from UniProt Q13547 1-482) (enzyme)
binds: all assays above

retinoblastoma binding protein 4 (RBBP4) (from UniProt Q09028 1-425)
binds: all assays above

RCOR1 (from UniProt Q9UKL0 1-485)
binds: [1] | GFI1WT-BirA*-Flag

chromodomain helicase DNA binding protein 4 (CHD4) (from UniProt Q14839 1-1912)
binds: all assays above

chromodomain helicase DNA binding protein 3 (CHD3) (from UniProt Q12873 1-2000)
binds: all assays above
